{"source": "patent US6379655B1", "about": "“Photoprotective/cosmetic compositions comprising aminoamidine sunscreens” (Societe l'Oreal S.A., priority 1999, dated 2002)", "assay": "UV absorption (sunscreening properties) in ethanol", "type": "physicochemical", "description": "This compound had the following sunscreening properties:\nspectral domain where ε is greater than 10,000: 297 to 377 nm.", "note": "At least one compound was matched to its structure with a doubt left."}
{"molecule": "COc1cccc(/C=N/N=C(\\N)c2ccccc2)c1", "note": "[Compound 29, N′-[(E)-3-methoxyphenylmethylidene]benzenecarbohydrazonamide]", "values": [{"measurement": "E1%", "value": 1016}, {"measurement": "λmax", "value": 341, "unit": "nm"}]}
